This is one part of the list. Further columns of the screen follow, without active or inactive calls. Compounds called inactive in the main read-out are mostly missing here. Potencies come from curve fits of mixed quality, noted in brackets.

The experiment is described as follows: qHTS Assay to Find Inhibitors of Chronic Active B-Cell Receptor Signaling. The settings on record: ABC-DLBCL IkBa-CBG/CBR reporter, luminescence ratio (green luciferase fused to IkBa over red control in TMD8 lymphoma cells), 4 h. In short, it runs like this: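 Concentration-response series (up to 46 uM) were applied to TMD8 dual-reporter cells for 4 h at 37C with doxycycline. Green/red ratio, after filter-overlap correction, defined %Activity; red signal alone was normalised to basal cells and zero luminescence.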
For orientation: In qHTS, concentration-response curves come from the screen itself.

[1] abbreviates: measured here: CBR red luminescence, cell number.
[2] abbreviates: measured here: IkBa-CBG green luminescence.

In the case of `S=C(NCc1ccncc1)Nc1ccc(Br)cc1Cl`, the half-maximal activity concentration (AC50) (in general, the concentration giving half of the maximal activity seen) runs as follows: under setting [1], 35.5 µM [falling, single point]; under setting [2], 17.8 µM [rising, single point].

With `c1ccc(-c2nn3nnnc3c3ccccc23)cc1`, the half-maximal activity concentration (AC50) under setting [1] is 20.6 µM [rising, partial curve].

For the compound `CCOc1ccc(CN2CCN(C3CCSCC3)CC2CCO)cc1` (centres undefined), the half-maximal activity concentration (AC50) under setting [1] is 2.24 µM [rising, partial curve].

With `CCOC(=O)[C@H]1[C@H]2COc3ccc(Br)cc3[C@@H]2N2C(=O)c3ccc(F)cc3NC(=O)[C@@]12C`, the AC50 under setting [1] is 29.1 µM [falling, partial curve, poor fit].

`Cc1ccc(CNC(=O)CCn2cc(-c3ccc(F)cc3)nc2-c2ccncc2)cc1`: the AC50 under setting [1] is 29.1 µM [falling, single point].

Take `CCOC(=O)Cn1c(=O)oc2cc(S(=O)(=O)Nc3ccc(N(CC)CC)cc3C)ccc21`: the AC50 under setting [1] was 29.1 µM [falling, single point].

For the compound `Cc1nnc(SCc2nnc(-c3ccccc3Br)o2)n1-c1ccccc1`, the AC50 under setting [1] was 32.6 µM [falling, partial curve, poor fit].

Turning to `CCCn1c(C)cc(C(=O)COC(=O)c2c(C)nn(-c3ccccc3)c2C)c1C`, under setting [1], the AC50 is 0.0058 µM [falling, full curve, poor fit].

`CC1(C)Cc2c(sc3c2c(=N)n(Cc2ccco2)c(=O)n3CC(=O)Nc2ccc(Cl)cc2)CO1`: under setting [1], the AC50 was 32.6 µM [falling, single point].

On to `CCN(CC(=O)Nc1ccc(NC(C)=O)cc1)C(=O)CCCN1C(=O)c2ccccc2C1=O`, for which the half-maximal activity concentration (AC50) under setting [1] is 0.517 µM [rising, partial curve, poor fit].

In the case of `O=[N+]([O-])c1ccc(Sc2nnnn2-c2ccccc2)nc1`, the concentration at half-maximal activity (AC50) under setting [1] is 7.08 µM [falling, partial curve, poor fit] and the AC50 under setting [2] was 6.31 µM [falling, single point].

Consider `Cc1nn(C)c(C(=O)NNC(=S)NC2CCCCC2)c1Br`, for which, under setting [1], the half-maximal activity concentration (AC50) was 31.6 µM [falling, single point].

`Cc1nnc(-c2cccc(Br)c2)c2cn(-c3ccccc3Cl)nc12`: under setting [1], the concentration at half-maximal activity (AC50) was 2.51 µM [falling, partial curve, poor fit].

Take `c1ccc(CN2CCN(c3nc(-c4ccccn4)nc4ccccc34)CC2)cc1`: the concentration at half-maximal activity (AC50) under setting [1] is 6.31 µM [rising, single point].

`Cc1ccccc1OCC(=O)N1N=C(C(F)(F)F)CC1(O)C(C)(C)C` (centres undefined): the AC50 reads like this: under setting [1], 29.1 µM [rising, single point]; under setting [2], 25.9 µM [falling, partial curve, poor fit].

With `COc1ccccc1Oc1ccc(NC(=O)c2ccccc2C)cc1`, under setting [1], the AC50 was 1.26 µM [falling, partial curve, poor fit].

For the compound `COc1ccccc1-c1cc(C(=O)NCc2ccccc2)no1`, the half-maximal activity concentration (AC50) under setting [1] is 3.16 µM [falling, full curve].

As to `CC(=O)N/N=C/c1ccccc1OCCOc1cccc(C)c1`, the concentration at half-maximal activity (AC50) under setting [1] is 17.8 µM [rising, partial curve, poor fit].

Take `O=C(O)Cc1sc(N/N=C\c2ccncc2)nc1-c1ccccc1`: under setting [1], the AC50 is 7.08 µM [falling, partial curve].

In the case of `O=C(CC1S/C(=N/N=C/c2cccnc2)NC1=O)Nc1ccccc1` (centres undefined), the concentration at half-maximal activity (AC50) under setting [1] is 12.6 µM [falling, partial curve].

As to `Cc1nn(-c2ccccc2)c2nc3c(cc12)C(=O)CCC3`, the AC50 is 6.51 µM [falling, partial curve] under setting [1] and 3.66 µM [rising, full curve, poor fit] under setting [2].

With `COC(=O)N1CCN(c2ccc(Cl)c(Cl)c2)CC1`, the AC50 under setting [1] is 29.1 µM [rising, single point].

As to `COc1cccc(C=Nc2ccc3c(c2)CCC3)c1O`, the AC50 under setting [1] was 14.1 µM [falling, partial curve, poor fit].

Take `CCOC(=O)c1[nH]cnc1C(=O)Nc1ccc(F)cc1`: under setting [1], the AC50 is 11.2 µM [falling, single point].

`COc1ccc(-c2nsc3c(N4CCCCC4)ncnc23)cc1`: the AC50 under setting [1] was 0.282 µM [rising, full curve, poor fit].

As for `CCOC(=O)C(C)n1cnc2c(nnn2Cc2ccc(C)cc2)c1=O` (centres undefined), the AC50 under setting [1] was 20.6 µM [rising, partial curve].

Turning to `CC(C)(C)C(=O)Nc1cccc(-c2nc3ccccc3[nH]2)c1`, the concentration at half-maximal activity (AC50) under setting [1] is 16.4 µM [falling, partial curve].

Turning to `COc1ccc(Nc2ncnc3sc(-c4ccccc4)cc23)cc1OC`, the AC50 under setting [1] was 6.51 µM [falling, partial curve, poor fit].

As to `O=C(Cc1ccc(S(=O)(=O)N2CCCC2)s1)NC1CCCCCC1`, the half-maximal activity concentration (AC50) under setting [1] is 0.206 µM [rising, full curve, poor fit].

Consider `COc1ccc2[nH]cc(/C=C/c3cc[n+](C)cc3)c2c1`, for which the half-maximal activity concentration (AC50) by setting is: under setting [1], 4.47 µM [falling, full curve, poor fit]; under setting [2], 3.16 µM [rising, full curve, poor fit].

With `Cc1sc2ncnc(N3CCC(C(=O)N(C)CC(=O)Nc4ccc(Cl)c(C(F)(F)F)c4)CC3)c2c1C`, the AC50 under setting [1] was 29.1 µM [falling, single point].

As to `CCOC(=O)C(=Cc1ccc(-n2ccnc2)cc1)C(=O)OCC`, the AC50 is, setting by setting: under setting [1], 11.2 µM [falling, partial curve, poor fit]; under setting [2], 15.8 µM [rising, single point].

For `COc1ccccc1NS(=O)(=O)c1cccc(C(=O)OCC(=O)Nc2cc(C)on2)c1`, the AC50 under setting [1] was 11.2 µM [falling, partial curve, poor fit].

For `Cc1cc(S(=O)(=O)NC[C@H]2O[C@@H](n3cnc4c(N)ncnc43)[C@H](O)[C@@H]2O)c(C)s1`, under setting [1], the AC50 was 0.651 µM [rising, partial curve].

In the case of `Cc1nn(-c2ccccc2)c2c1C(c1ccco1)C(C#N)=C(N)O2` (centres undefined), the AC50 under setting [1] was 11.2 µM [falling, partial curve].

With `Cc1nc(-c2coc3cc(O)c(C)cc3c2=O)cs1`, the AC50 under setting [1] is 2.06 µM [falling, partial curve, poor fit].

Take `CCOC(=O)c1sc(=NC(=O)COc2ccc(Cl)cc2)n(C)c1C`: the AC50 under setting [1] was 35.5 µM [falling, partial curve, poor fit].

As for `CCOc1ccc(Nc2cc(C)nc3nc(C)nn23)cc1`, the AC50 under setting [1] is 23.1 µM [falling, partial curve, poor fit].

With `Cc1ccc(/C=N/Nc2ccc(Cl)nn2)cc1`, the AC50 under setting [1] was 0.355 µM [rising, full curve, poor fit].

In the case of `Cc1cccnc1NC(=O)c1ccc(S(=O)(=O)N2CCCCCC2)cc1`, the half-maximal activity concentration (AC50) under setting [1] was 0.517 µM [falling, partial curve, poor fit].

Turning to `COc1ccc2cc(C3CC(c4cccs4)=NN3S(C)(=O)=O)c(Cl)nc2c1` (centres undefined), the half-maximal activity concentration (AC50) reads like this: under setting [1], 23.1 µM [falling, single point]; under setting [2], 23.1 µM [falling, partial curve, poor fit].

Turning to `CC(C)CC(CC(C)C)=NNC(=O)c1ccc2c(c1)OCO2`, the half-maximal activity concentration (AC50) under setting [1] was 15.8 µM [falling, partial curve, poor fit].

As to `COc1ccc(OC)c(-c2csc(NC(=O)Cc3ccc(F)cc3)n2)c1`, under setting [1], the concentration at half-maximal activity (AC50) is 2.82 µM [rising, partial curve, poor fit].

Take `CCc1noc(C)c1C(=O)Nc1cccc(S(=O)(=O)N(C)c2ccccc2)c1`: the AC50 under setting [1] was 29.1 µM [falling, single point].

`O=C(c1ccc(Br)o1)N1CC=C(c2ccccc2)CC1`: the concentration at half-maximal activity (AC50) under setting [1] was 1.46 µM [rising, full curve, poor fit].

On to `Nc1ccccc1N=c1ssnc1Cl`, for which the AC50 under setting [1] is 35.5 µM [falling, partial curve, poor fit].

Take `O=C(COC(=O)CCc1ccc(S(=O)(=O)N2CCOCC2)cc1)NCc1ccc(Cl)cc1`: under setting [1], the half-maximal activity concentration (AC50) is 2.82 µM [rising, full curve, poor fit].

Regarding `CCOC(=O)c1c(CSc2cccs2)n(C)c2cc(Br)c(O)c(CN(C)C)c12`, under setting [1], the AC50 is 35.5 µM [falling, single point].

With `C(=N\Nc1nc2ccccc2[nH]1)/c1ccccc1`, under setting [1], the AC50 is 14.1 µM [falling, single point].

As for `O=C(Nc1sc2c(c1C(=O)NCCCO)CCCC2)c1ccccc1`, the half-maximal activity concentration (AC50) under setting [1] was 3.98 µM [falling, partial curve].

Take `Cc1cc(=O)oc2cc(NC(=O)C(C)Oc3cccc(Cl)c3)ccc12` (centres undefined): the AC50 under setting [1] was 11.6 µM [rising, single point].

Turning to `CCN(CC)S(=O)(=O)c1ccc(OC)c(NC(=O)Cc2cccs2)c1`, the half-maximal activity concentration (AC50) under setting [1] is 15.8 µM [rising, single point].

Turning to `CCOc1ccc(-c2cc(CCCC(=O)N3CCN(c4ccc(OC)cc4)CC3)no2)cc1`, the concentration at half-maximal activity (AC50) under setting [1] was 4.61 µM [falling, full curve].

For `Cc1cccc(-n2nnnc2S(C)(=O)=O)c1`, the AC50 under setting [1] is 1.58 µM [falling, full curve] and the AC50 under setting [2] was 1.41 µM [rising, full curve, poor fit].

For the compound `COc1ccc(NC(=O)c2ccc(COc3ccccc3OC)o2)cc1OC`, the concentration at half-maximal activity (AC50) under setting [1] was 5.62 µM [falling, partial curve, poor fit].

On to `COC(=O)c1ccccc1OCC(=O)NC1CCCCC1`, for which the AC50 under setting [1] was 4.11 µM [rising, single point].

In the case of `N#CC1=C(N)N(c2ccccc2)C(=O)C1`, under setting [1], the half-maximal activity concentration (AC50) is 5.17 µM [rising, full curve, poor fit].

Regarding `COc1ccc(N2CCN(C(=O)c3c(C)nn(-c4ccccc4)c3C)CC2)cc1`, the AC50 under setting [1] is 1.64 µM [rising, full curve, poor fit].

For the compound `CC(C)(C)N=Cc1cc(-c2ccccc2)sc1O`, the half-maximal activity concentration (AC50) under setting [1] is 11.6 µM [rising, partial curve, poor fit].

With `C[C@H]1C[C@@H]2[C@H]([C@@H](O)C[C@@]3(C)[C@H]2CC[C@]3(O)C(=O)CO)[C@@]2(C)C=CC(=O)C=C12`, the AC50 reads like this: under setting [1], 0.00461 µM [rising, full curve, poor fit]; under setting [2], 23.1 µM [falling, partial curve].

The record behind these values is PubChem BioAssay AID493014 (National Center for Advancing Translational Sciences (NCATS), 2011).
